According to article PMC6521037:
Results are given in words; binding and its absence hold for the method and conditions named. Binding seen in cells or lysates may run through a third protein. A yes stands for co-enrichment or nearness to the bait. Other partners may have been found.

By UniProt entry, the sequences of proteins in these tests, tags left out. Where a name states a change or a piece, a line headed by the entry shows the natural chain unless it says otherwise. Chains listed by the source or under a name are the forms on record and can include a tag or linker.
UniProt Q9HAU4: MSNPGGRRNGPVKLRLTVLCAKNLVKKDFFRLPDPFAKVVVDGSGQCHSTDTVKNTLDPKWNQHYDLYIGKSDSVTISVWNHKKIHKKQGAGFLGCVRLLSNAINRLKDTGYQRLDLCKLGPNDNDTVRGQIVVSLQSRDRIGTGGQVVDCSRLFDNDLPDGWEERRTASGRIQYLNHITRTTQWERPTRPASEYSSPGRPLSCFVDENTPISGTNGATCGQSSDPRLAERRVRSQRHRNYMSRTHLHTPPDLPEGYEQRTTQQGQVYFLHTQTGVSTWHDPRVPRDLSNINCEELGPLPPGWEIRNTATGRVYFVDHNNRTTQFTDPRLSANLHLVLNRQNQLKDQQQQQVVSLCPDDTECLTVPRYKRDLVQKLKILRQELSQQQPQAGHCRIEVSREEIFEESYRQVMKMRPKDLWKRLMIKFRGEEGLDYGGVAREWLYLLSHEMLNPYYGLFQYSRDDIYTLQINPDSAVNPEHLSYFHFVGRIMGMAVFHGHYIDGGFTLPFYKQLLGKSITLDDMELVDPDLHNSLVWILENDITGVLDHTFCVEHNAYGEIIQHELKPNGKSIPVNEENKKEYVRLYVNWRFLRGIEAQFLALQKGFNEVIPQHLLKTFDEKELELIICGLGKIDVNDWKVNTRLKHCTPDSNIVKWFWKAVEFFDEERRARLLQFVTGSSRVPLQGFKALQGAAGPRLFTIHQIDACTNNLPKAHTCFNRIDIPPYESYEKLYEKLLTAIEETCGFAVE
MYC-tagged SMURF2, catalytically inactive Cys716Gly mutant (Q9HAU4, form named): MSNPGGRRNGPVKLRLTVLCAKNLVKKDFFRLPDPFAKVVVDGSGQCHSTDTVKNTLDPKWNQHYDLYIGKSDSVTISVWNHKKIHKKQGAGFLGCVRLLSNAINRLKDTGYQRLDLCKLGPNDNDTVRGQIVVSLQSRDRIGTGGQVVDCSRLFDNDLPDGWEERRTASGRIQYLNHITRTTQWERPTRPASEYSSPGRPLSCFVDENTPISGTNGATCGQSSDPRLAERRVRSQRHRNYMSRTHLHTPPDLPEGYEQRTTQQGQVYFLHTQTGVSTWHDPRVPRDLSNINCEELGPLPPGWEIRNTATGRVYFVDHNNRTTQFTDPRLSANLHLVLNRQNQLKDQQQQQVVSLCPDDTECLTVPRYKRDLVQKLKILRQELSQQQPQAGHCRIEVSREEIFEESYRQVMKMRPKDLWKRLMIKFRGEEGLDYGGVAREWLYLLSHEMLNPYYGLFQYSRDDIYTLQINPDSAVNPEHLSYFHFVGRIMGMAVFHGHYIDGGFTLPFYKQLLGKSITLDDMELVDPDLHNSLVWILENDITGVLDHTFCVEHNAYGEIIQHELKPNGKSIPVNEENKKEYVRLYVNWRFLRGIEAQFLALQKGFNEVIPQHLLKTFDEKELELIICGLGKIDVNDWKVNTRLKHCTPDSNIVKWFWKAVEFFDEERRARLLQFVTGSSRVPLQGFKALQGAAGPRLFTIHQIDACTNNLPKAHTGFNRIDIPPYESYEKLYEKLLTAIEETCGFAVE
UniProt P63104: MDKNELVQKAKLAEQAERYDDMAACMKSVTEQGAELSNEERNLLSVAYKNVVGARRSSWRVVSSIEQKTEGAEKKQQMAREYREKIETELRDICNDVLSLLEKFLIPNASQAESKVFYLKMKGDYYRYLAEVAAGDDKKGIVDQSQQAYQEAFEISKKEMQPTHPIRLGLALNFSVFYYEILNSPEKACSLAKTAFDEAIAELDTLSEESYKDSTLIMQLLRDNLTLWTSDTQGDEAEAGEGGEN
UniProt P62258: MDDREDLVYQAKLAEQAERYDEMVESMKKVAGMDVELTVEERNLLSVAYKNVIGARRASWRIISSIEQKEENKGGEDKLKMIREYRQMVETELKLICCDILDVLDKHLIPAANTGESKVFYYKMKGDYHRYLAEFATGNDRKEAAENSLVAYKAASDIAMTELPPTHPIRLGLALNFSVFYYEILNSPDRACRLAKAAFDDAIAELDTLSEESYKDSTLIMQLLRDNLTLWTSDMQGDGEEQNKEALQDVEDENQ

What was measured:
[1] = target: MYC-tagged SMURF2, catalytically inactive Cys716Gly mutant (human) (UniProt Q9HAU4); assay: affinity purification with mass spectrometry; MYC-SMURF2 (WT or CG) expressed in HEK293T, 26 h after transfection; 1% NP-40 lysate, pre-cleared; anti-MYC antibody (9E10) and Protein-G Sepharose; eluted with 8 M urea; LC-MS/MS; empty MYC vector as control; two independent MS analyses
[2] = target: MYC-tagged SMURF2, wild-type (human) (UniProt Q9HAU4); assay: as above

| binding [1] | binding [2] | Molecule |
| --- | --- | --- |
| binds | binds | 14-3-3 Zeta/delta (from UniProt P63104 1-245) |
| binds | binds | 14-3-3 epsilon (from UniProt P62258 1-255) |
| binds | binds | 14-3-3 theta (protein, UniProt P27348 1-245) MEKTELIQKAKLAEQAERYDDMATCMKAVTEQGAELSNEERNLLSVAYKNVVGGRRSAWRVISSIEQKTDTSDKKLQLIKDYREKVESELRSICTTVLELLDKYLIANATNPESKVFYLKMKGDYFRYLAEVACGDDRKQTIDNSQGAYQEAFDISKKEMQPTHPIRLGLALNFSVFYYEILNNPELACTLAKTAFDEAIAELDTLNEDSYKDSTLIMQLLRDNLTLWTSDSAGEECDAAEGAEN |
| binds | binds | 14-3-3 gamma (protein, UniProt P61981 1-247) MVDREQLVQKARLAEQAERYDDMAAAMKNVTELNEPLSNEERNLLSVAYKNVVGARRSSWRVISSIEQKTSADGNEKKIEMVRAYREKIEKELEAVCQDVLSLLDNYLIKNCSETQYESKVFYLKMKGDYYRYLAEVATGEKRATVVESSEKAYSEAHEISKEHMQPTHPIRLGLALNYSVFYYEIQNAPEQACHLAKTAFDDAIAELDTLNEDSYKDSTLIMQLLRDNLTLWTSDQQDDDGGEGNN |
